The supplement of paper PMC10689618
Structures can show the parent of a compound that is named as a salt. Some of the results follow. Many values rest on one well or one pass, so single values are uncertain.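 Primary human fetal astrocytes engulfed labelled rat cortical synaptosomes, measured as a red/green ratio corrected for calcein live-cell signal and scaled to the plate median. Toxicity meant calcein falling over 30%; decreased phagocytosis meant below 70% of median above 5 µM.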

Experiments:
Human fetal astrocytes [1] = assay: loss of total cells relative to no-compound high-control median (toxicity); higher = more toxic (fewer cells); settings: 24 h
Human fetal astrocytes [2] = assay: synaptosome phagocytosis (pHrodo/calcein intensity ratio) relative to plate median of data wells; higher = more phagocytosis; settings: 24 h

Row | SMILES | loss of total cells (Human fetal astrocytes [1]; 1.39 µM) [%] | loss of total cells (Human fetal astrocytes [1]; 2.78 µM) [%] | loss of total cells (Human fetal astrocytes [1]; 5.56 µM) [%] | loss of total cells (Human fetal astrocytes [1]; 11.11 µM) [%] | loss of total cells (Human fetal astrocytes [1]; 22.22 µM) [%] | synaptosome phagocytosis (Human fetal astrocytes [2]; 1.39 µM) [%] | synaptosome phagocytosis (Human fetal astrocytes [2]; 2.78 µM) [%] | synaptosome phagocytosis (Human fetal astrocytes [2]; 5.56 µM) [%] | synaptosome phagocytosis (Human fetal astrocytes [2]; 11.11 µM) [%] | synaptosome phagocytosis (Human fetal astrocytes [2]; 22.22 µM) [%]
1 | C[N+]1(C)[C@@H]2C[C@@H](OC(=O)[C@H](CO)c3ccccc3)C[C@H]1[C@@H]1O[C@@H]12 [(-)-Scopolamine methyl bromide] | 10.9 | -6.3 | -2.2 | -0.4 | -22.2 | 84.1 | 84.3 | 75.8 | 111 | 118
2 | N[C@H](CCCCCP(=O)(O)O)C(=O)O [D(-)-2-Amino-7-phosphonoheptanoic acid] | -15 | -9.3 | 7.8 | 6.7 | 3.4 | 96.4 | 96.1 | 95.6 | 87.3 | 93.1
3 | NCCCP(=O)(O)O [3-Aminopropylphosphonic acid] | -13.6 | -4.2 | 6.9 | 11.2 | 0.4 | 79 | 81.1 | 79.8 | 98.9 | 77.7
4 | CN1[C@@H]2CC[C@H]1C[C@@H](OC(=O)c1cc(Cl)cc(Cl)c1)C2 [3-Tropanyl-3,5-dichlorobenzoate] | -21.4 | -13.5 | 4.5 | -7.3 | 5.8 | 109 | 97.1 | 87.6 | 88.1 | 80.3
5 | CC(=O)NCCc1c[nH]c2ccccc12 [N-Acetyltryptamine] | -1.5 | -9.6 | -0.5 | -17.5 | -4.9 | 74.6 | 116 | 74.2 | 106 | 95.7
6 | CN1CC[C@@]2(C)c3cc(O)ccc3N(C)C12 (single isomer, unassigned; (-)) [(-)-Eseroline fumarate] | -21.3 | -10.3 | -4.9 | -18.4 | 7.2 | 105 | 98.3 | 97.4 | 65 | 70.8
7 | O=C(Cc1ccc(Cl)c(Cl)c1)N1CCCCC1CN1CCCC1 (stereo not given) | -15.2 | -18.3 | -6.7 | 13.4 | 8.2 | 104 | 79 | 109 | 76.2 | 103
8 | CCN(CC)C(=O)NC1CC2c3cccc4[nH]cc(c34)CC2N(C)C1 (stereo not drawn) [R(+)-Terguride] | 2.2 | 1.5 | 7.3 | -1.9 | -2.5 | 120 | 127 | 108 | 108 | 105
9 | CCCCc1ccc(C(=O)O)nc1 [Fusaric acid] | -2.1 | -6.8 | 2.5 | -7.6 | 12.8 | 106 | 105 | 136 | 94.8 | 128
10 | CCCN(CCC)C1CCc2ccc(O)cc2C1 (stereo not drawn) [R-(+)-7-Hydroxy-DPAT hydrobromide] | -18 | -32.5 | -2.5 | -20.2 | -4 | 94.2 | 74.8 | 103 | 93.7 | 97.3
11 | Cc1nc(-c2ccc(-c3ccc(C(=O)N4CCc5cc6c(cc54)C4(CCN(C)CC4)CO6)cc3)c(C)c2)no1 | -46.3 | -23.7 | -3.4 | -7.3 | 33.7 | 89.9 | 98.1 | 79.7 | 90.9 | 26.3
12 | N[C@@H](Cc1ccc(N(CCCl)CCCl)cc1)C(=O)O [Melphalan] | -16.6 | -14 | 8 | 2.9 | 29 | 84.5 | 97 | 98.8 | 84.3 | 79.2
13 | CC(C)N(CCC(C(N)=O)(c1ccccc1)c1ccccn1)C(C)C (stereo not given) [Disopyramide phosphate] | -4.6 | -10.3 | -6.6 | -7.6 | 12 | 110 | 111 | 115 | 117 | 143
14 | c1ccc2sc(C3(N4CCCCC4)CCCCC3)cc2c1 [BTCP hydrochloride] | -21.7 | -13.8 | -16.1 | -15.7 | 3.4 | 90.3 | 94.8 | 86 | 71.7 | 80.2
15 | O=C(O)CCCc1ccc(N(CCCl)CCCl)cc1 [Chlorambucil] | -14.7 | -16.5 | -19.8 | -0.4 | -13.9 | 98.1 | 99 | 86.2 | 139 | 93.6
16 | CC(=O)c1c(O)c(C)c(O)c(Cc2c(O)c3c(c(C(=O)/C=C/c4ccccc4)c2O)OC(C)(C)C=C3)c1O [Rottlerin] | -28.3 | -28.4 | -11.8 | -1.9 | 8.2 | 114 | 117 | 100 | 100 | 23.3
17 | COc1ccc(CNC(=O)/C=C/c2ccc3[nH]cc(CCN(C)C)c3c2)cc1 | -46.6 | -33.7 | -23.5 | -34.5 | -3.4 | 67.5 | 74.2 | 80.8 | 84.1 | 68.2
18 | c1ccc2c(c1)OCC(C1=NCCN1)O2 (stereo not given) [Idazoxan hydrochloride] | -11.8 | 7.7 | 27.7 | 9.5 | 27.1 | 122 | 133 | 112 | 69.8 | 83.9
19 | Oc1ccc2c3c1O[C@H]1c4[nH]c5c(c4C[C@@]4(O)[C@@H](C2)N(CC2CC2)CC[C@]314)C[C@@]1(O)[C@H]2Cc3ccc(O)c4c3[C@@]1(CCN2CC1CC1)[C@H]5O4 [nor-Binaltorphimine dihydrochloride] | -24.2 | -6.8 | -7 | -18.1 | 0.9 | 99.8 | 118 | 107 | 102 | 111

Row | SMILES | loss of total cells (Human fetal astrocytes [1]; 1.39 µM) [%] | loss of total cells (Human fetal astrocytes [1]; 2.78 µM) [%] | loss of total cells (Human fetal astrocytes [1]; 5.56 µM) [%] | loss of total cells (Human fetal astrocytes [1]; 11.11 µM) [%] | loss of total cells (Human fetal astrocytes [1]; 22.22 µM) [%] | synaptosome phagocytosis (Human fetal astrocytes [2]; 1.39 µM) [%] | synaptosome phagocytosis (Human fetal astrocytes [2]; 2.78 µM) [%] | synaptosome phagocytosis (Human fetal astrocytes [2]; 5.56 µM) [%] | synaptosome phagocytosis (Human fetal astrocytes [2]; 11.11 µM) [%] | synaptosome phagocytosis (Human fetal astrocytes [2]; 22.22 µM) [%]
20 | C=CCc1ccccc1OCC(O)CNC1(C)CCC(C(C)(C)NC(=O)CBr)CC1 (stereo not given) [Bromoacetyl alprenolol menthane] | -26.1 | -23.5 | -7.8 | 35.4 | 78.6 | 81.1 | 101 | 80.3 | 24.1 | 28.2
21 | C=C(C)[C@H]1CN[C@H](C(=O)O)[C@H]1CC(=O)O [Kainic acid] | -10.9 | -5 | -9.9 | 7.6 | 6.5 | 87.5 | 108 | 114 | 123 | 119
22 | COC(=O)[C@@H](N)CCCNC(=N)N[N+](=O)[O-] [NG-Nitro-L-arginine methyl ester hydrochloride] | -20.4 | -6.8 | 11.7 | -1 | 7.5 | 88.2 | 137 | 95.5 | 111 | 150
23 | COc1ccccc1N1CCNCC1 [1-(2-Methoxyphenyl)piperazine hydrochloride] | -14 | -30.8 | -9.6 | 5.7 | 1.6 | 112 | 115 | 95 | 105 | 113
24 | NCCc1ccc(O)cc1 [4-Hydroxyphenethylamine hydrochloride] | -6.5 | -11.7 | -14 | 4.2 | -22.2 | 110 | 99.8 | 96.3 | 105 | 105
25 | CCN(CC)C(=O)NC1C=C2c3cccc4[nH]cc(c34)CC2N(C)C1 (stereo not drawn) [S-(-)-Lisuride] | -5.2 | -0.5 | 11.7 | 20 | -7.5 | 122 | 77.8 | 115 | 110 | 88.4
26 | CN1CCC23CCCCC2C1Cc1ccc(O)cc13 [Dextrorphan D-tartrate] | -9.6 | 0.9 | -7.4 | -12.1 | -20 | 90.7 | 131 | 70.6 | 94.9 | 69.3
27 | CCCCCCCCCCCCCC(=O)O[C@@H]1[C@@H](C)[C@@]2(O)[C@@H](C=C(CO)C[C@]3(O)C(=O)C(C)=C[C@@H]23)[C@@H]2C(C)(C)[C@]12OC(C)=O [Phorbol 12-myristate 13-acetate] | 17.1 | 22.5 | 24.7 | 38.7 | 19.8 | 88 | 91 | 88.3 | 62.8 | 81.5
28 | COc1ccc(CCN)cc1O [4-Methoxy-3-hydroxyphenethylamine hydrochloride] | -2.9 | 2.6 | -9.9 | -8.5 | 3.2 | 135 | 131 | 108 | 97 | 111
29 | COc1ccc2c3c1O[C@H]1C(=O)CC[C@@]4(O)C(C2)N(CC2CC2)CCC314 (single isomer, unassigned; (-)) [(-)-3-Methoxynaltrexone hydrochloride] | -12.8 | 5 | 5.2 | 32.4 | 20.6 | 117 | 99.7 | 98 | 110 | 92.9
30 | CC(C)[C@@]1(NC(=O)[C@@H]2C=C3c4cccc5[nH]cc(c45)C[C@H]3N(C)C2)O[C@@]2(O)[C@@H]3CCCN3C(=O)[C@H](Cc3ccccc3)N2C1=O [Ergocristine] | -7.1 | -10.3 | -25.5 | -13 | 5.6 | 122 | 119 | 122 | 128 | 124
31 | N#CCCN [3-Aminopropionitrile fumarate] | 1.5 | -12 | -6.9 | -4.9 | 4.9 | 93.9 | 133 | 92.9 | 117 | 98.3
32 | CC1C2Cc3ccc(O)cc3C1(C)CCN2CC1CC1 (single isomer, unassigned; (+)) [(+)-Cyclazocine] | -13 | -12.8 | -8.2 | -18.4 | 4.8 | 81.5 | 87.4 | 90.7 | 87.3 | 104
33 | C[C@H](Cc1ccc2c(c1)OC(C(=O)O)(C(=O)O)O2)NC[C@H](O)c1cccc(Cl)c1 | -29.4 | -14.4 | 6 | -15.7 | 3.4 | 118 | 103 | 104 | 102 | 96.8
34 | Nc1ccncc1 [4-Aminopyridine] | 0.4 | -10.2 | -9.7 | -3.1 | 11.7 | 140 | 110 | 118 | 89.5 | 102
35 | c1ccc2c(c1)[I+]c1ccccc1-2 [Diphenyleneiodonium chloride] | -1.3 | 14.5 | 11.5 | 25.6 | 29.6 | 70.1 | 71.3 | 52.9 | 39.3 | 67.6
36 | O=[N+]([O-])c1cc(O)c(O)c([N+](=O)[O-])c1 [3,5-Dinitrocatechol] | -8.8 | -6.8 | -2.5 | -16.6 | -8 | 85.6 | 91.3 | 106 | 111 | 104
37 | CC1=C[C@@H]2c3cccc4[nH]cc(c34)C[C@H]2N(C)C1 [Agroclavine] | -25.3 | -14.4 | -27.2 | -14.8 | -13.9 | 87.7 | 111 | 104 | 75.8 | 86.9
38 | CCn1cnc2c(Nc3cccc(Cl)c3)nc(N[C@@H]3CCCC[C@@H]3N)nc21 | 4 | 2.4 | -9.7 | 39.9 | 25.2 | 98.3 | 95 | 58.4 | 30.3 | 20.1

Rewritten with tabs: entries from further up
Row	SMILES	loss of total cells (Human fetal astrocytes [1]; 1.39 µM) [%]	loss of total cells (Human fetal astrocytes [1]; 2.78 µM) [%]	loss of total cells (Human fetal astrocytes [1]; 5.56 µM) [%]	loss of total cells (Human fetal astrocytes [1]; 11.11 µM) [%]	loss of total cells (Human fetal astrocytes [1]; 22.22 µM) [%]	synaptosome phagocytosis (Human fetal astrocytes [2]; 1.39 µM) [%]	synaptosome phagocytosis (Human fetal astrocytes [2]; 2.78 µM) [%]	synaptosome phagocytosis (Human fetal astrocytes [2]; 5.56 µM) [%]	synaptosome phagocytosis (Human fetal astrocytes [2]; 11.11 µM) [%]	synaptosome phagocytosis (Human fetal astrocytes [2]; 22.22 µM) [%]
22	COC(=O)[C@@H](N)CCCNC(=N)N[N+](=O)[O-] [NG-Nitro-L-arginine methyl ester hydrochloride]	-20.4	-6.8	11.7	-1	7.5	88.2	137	95.5	111	150
30	CC(C)[C@@]1(NC(=O)[C@@H]2C=C3c4cccc5[nH]cc(c45)C[C@H]3N(C)C2)O[C@@]2(O)[C@@H]3CCCN3C(=O)[C@H](Cc3ccccc3)N2C1=O [Ergocristine]	-7.1	-10.3	-25.5	-13	5.6	122	119	122	128	124
36	O=[N+]([O-])c1cc(O)c(O)c([N+](=O)[O-])c1 [3,5-Dinitrocatechol]	-8.8	-6.8	-2.5	-16.6	-8	85.6	91.3	106	111	104
